Data on 1 molecule can be found in publication PMC6115016.

These are yes or no findings as the source states them, for the method shown. In cells and extracts the contact can be indirect. A result given as binding can be weak or reduced; the word gives no strength.

Test [1] addresses E-cadherin (human (endogenous in RWPE-1)). The test can be described thus: co-IP; endogenous proteins in RWPE-1 cell lysate (50mM Tris-HCl, 150mM NaCl, 1mM EDTA, 0.25% TritonX-100, pH 7.4), 1 ug primary antibody 6 h at 4°C, Protein G-Agarose, immunoblot; also compared in E-cadherin knockdown and SCRIB knockdown cells. (In general: A western blot detects proteins with antibodies after separation by electrophoresis.)

For test [2], the target named is GST-tagged fragment of human SCRIB containing the PDZ domain (human). The test can be described thus: pull-down; GST-tagged SCRIB fragments held on glutathione sepharose beads, incubated with RWPE-1 cell lysate overnight at 4°C, immunoblot; only the target purified.

B1: leucine-glycine-asparagine repeat protein (LGN) (protein, UniProt P81274 1-684)
chain: MEENLISMREDHSFHVRYRMEASCLELALEGERLCKSGDCRAGVSFFEAAVQVGTEDLKTLSAIYSQLGNAYFYLHDYAKALEYHHHDLTLARTIGDQLGEAKASGNLGNTLKVLGNFDEAIVCCQRHLDISRELNDKVGEARALYNLGNVYHAKGKSFGCPGPQDVGEFPEEVRDALQAAVDFYEENLSLVTALGDRAAQGRAFGNLGNTHYLLGNFRDAVIAHEQRLLIAKEFGDKAAERRAYSNLGNAYIFLGEFETASEYYKKTLLLARQLKDRAVEAQSCYSLGNTYTLLQDYEKAIDYHLKHLAIAQELNDRIGEGRACWSLGNAYTALGNHDQAMHFAEKHLEISREVGDKSGELTARLNLSDLQMVLGLSYSTNNSIMSENTEIDSSLNGVRPKLGRRHSMENMELMKLTPEKVQNWNSEILAKQKPLIAKPSAKLLFVNRLKGKKYKTNSSTKVLQDASNSIDHRIPNSQRKISADTIGDEGFFDLLSRFQSNRMDDQRCCLQEKNCHTASTTTSSTPPKMMLKTSSVPVVSPNTDEFLDLLASSQSRRLDDQRASFSNLPGLRLTQNSQSVLSHLMTNDNKEADEDFFDILVKCQGSRLDDQRCAPPPATTKGPTVPDEDFFSLILRSQGKRMDEQRVLLQRDQNRDTDFGLKDFLQNNALLEFKNSGKKSADH
Turning to B1, the binding entry in test [1] and in test [2] was “binds” each time.
